Laboratory results taken from article PMC7001155.
No constants are given. Whether binding was seen depends on the method and setting. Binding seen in cells or lysates may run through a third protein. A result given as binding can be weak or reduced; the word gives no strength.

Sequences of proteins named here, by UniProt entry; tags and fusion partners are left off. A change or cut given only in a name is not applied to a line headed by its entry.
UniProt Q2M1V0: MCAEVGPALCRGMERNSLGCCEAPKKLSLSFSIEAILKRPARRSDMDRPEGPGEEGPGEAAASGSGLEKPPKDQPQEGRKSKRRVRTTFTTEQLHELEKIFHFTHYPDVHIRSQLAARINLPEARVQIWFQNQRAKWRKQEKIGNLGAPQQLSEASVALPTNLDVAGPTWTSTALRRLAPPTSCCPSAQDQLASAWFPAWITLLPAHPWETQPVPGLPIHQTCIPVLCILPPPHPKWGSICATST
UniProt Q92831: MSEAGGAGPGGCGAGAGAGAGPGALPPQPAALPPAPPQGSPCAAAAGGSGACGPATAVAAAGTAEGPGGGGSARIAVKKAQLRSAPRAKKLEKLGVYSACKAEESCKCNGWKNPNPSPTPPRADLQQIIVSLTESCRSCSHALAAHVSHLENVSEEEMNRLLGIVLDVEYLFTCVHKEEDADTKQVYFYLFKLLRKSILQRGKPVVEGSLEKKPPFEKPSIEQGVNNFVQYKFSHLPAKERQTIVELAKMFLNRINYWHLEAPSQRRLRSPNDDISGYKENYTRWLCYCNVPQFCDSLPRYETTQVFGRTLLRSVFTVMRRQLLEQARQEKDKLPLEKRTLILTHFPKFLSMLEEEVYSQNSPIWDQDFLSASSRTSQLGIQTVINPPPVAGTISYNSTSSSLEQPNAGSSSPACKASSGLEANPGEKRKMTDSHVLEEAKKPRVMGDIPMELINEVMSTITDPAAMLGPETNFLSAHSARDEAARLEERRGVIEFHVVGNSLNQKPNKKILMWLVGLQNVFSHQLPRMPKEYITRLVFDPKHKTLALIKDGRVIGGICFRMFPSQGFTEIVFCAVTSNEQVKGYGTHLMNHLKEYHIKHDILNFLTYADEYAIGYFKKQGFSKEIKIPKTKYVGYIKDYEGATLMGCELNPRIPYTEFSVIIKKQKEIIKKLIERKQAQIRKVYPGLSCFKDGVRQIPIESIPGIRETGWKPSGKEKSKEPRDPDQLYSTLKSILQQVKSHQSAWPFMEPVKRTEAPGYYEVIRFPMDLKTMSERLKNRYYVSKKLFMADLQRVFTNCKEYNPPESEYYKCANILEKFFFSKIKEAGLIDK

What was measured:
[1] = target: GFP‐tagged ISX AC1 mutant (position 38) (human) (UniProt Q2M1V0); experiment: co-IP; A549 cells transfected with GFP-tagged WT or mutant (AC1-AC3) ISX; anti-GFP immunoprecipitates blotted for endogenous PCAF and BRD4
[2] = target: GFP‐tagged ISX AC2 mutant (position 72) (human) (UniProt Q2M1V0); experiment: as above

binding [1]: binds
binding [2]: binds
Substance: p300/CBP‐associated factor (PCAF) (from UniProt Q92831 1-832) (enzyme)
